No constants are given. Whether binding was seen depends on the method and setting. In cells and extracts the contact can be indirect. Some entries that bind do so weakly or less than the wild type.
Biological target: chromobox 5 (CBX5) (mouse (endogenous in primary PASMCs)) (UniProt Q61686)
Experiment: co-IP; lysates of control and hypoxic PASMCs; anti-CBX5 antibody overnight at 4 °C, protein G/A beads; washed with 50 mM Tris-HCl pH 7.4, 100 mM NaCl, 5 mM CaCl2, 5 mM MgCl2, 0.1% Nonidet P-40; western blot with anti-USP15

The chains behind the UniProt entries cited, without tags or fusion partners.
UniProt Q61686: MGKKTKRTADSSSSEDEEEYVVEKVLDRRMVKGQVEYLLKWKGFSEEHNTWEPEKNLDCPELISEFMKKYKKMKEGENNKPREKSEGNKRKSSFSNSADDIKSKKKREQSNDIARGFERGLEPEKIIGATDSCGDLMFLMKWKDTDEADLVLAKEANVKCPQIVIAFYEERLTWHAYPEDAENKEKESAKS

- binding: binds
B1: ubiquitin-specific protease 15 (USP15) (enzyme, UniProt Q8R5H1 1-981)
chain: MAEGGAADLDTQRSDIATLLKTSLRKGDTWYLVDSRWFKQWKKYVGFDSWDKYQMGDQNVYPGPIDNSGLLKDGDAQSLKEHLIDELDYILLPTEGWNKLVSWYTLMEGQEPIARKVVEQGMFVKHCKVEVYLTELKLCENGNMNNVVTRRFSKADTIDTIEKEIRKIFNIPDEKEARLWNKYMSNTFEPLNKPDSTIQDAGLYQGQVLVIEQKNEDGTWPRGPSTPKSPGASNFSTLPKISPSSLSNNYNNINNRNVKNSNYCLPSYTAYKNYDYSEPGRNNEQPGLCGLSNLGNTCFMNSAIQCLSNTPPLTEYFLNDKYQEELNFDNPLGMRGEIAKSYAELIKQMWSGKFSYVTPRAFKTQVGRFAPQFSGYQQQDCQELLAFLLDGLHEDLNRIRKKPYIQLKDADGRPDKVVAEEAWENHLKRNDSIIVDIFHGLFKSTLVCPECAKISVTFDPFCYLTLPLPMKKERSLEVYLVRMDPLAKPMQYKVIVPKIGNILDLCTALSALSGVPADKMIVTDIYNHRFHRIFAVDENLSSIMERDDIYVFEININRAEDTEHVVIPVCLREKFRHSSYTHHTGSSLFGQPFLMAIPRNNTEDKLYNLLLLRMCRYVKMSTETEETDGHLRCCEDQNINGNGPNGLHEEGSPSEMETDEPDDESSQDQELPSENENSQSEDSVGGDNDSENGLCTEETCKGQLTGHKKRLFTFQFNNLGNNDINYIKDDTSHIRFDDRQLRLDERSFLALDWDPDLKKRYFDENAAEDFEKHESVEYKPPKRPFVKLKDCIELFTTKEKLGAEDPWYCPNCKEHQQATKKLDLWSLPPVLVVHLKRFSYSRYMRDKLDTLVDFPISDLDMSEFLINPNAGPCRYNLIAVSNHYGGMGGGHYTAFAKNKDDGKWYYFDDSSVSTASEDQIVSKAAYVLFYQRQDTFSGTGFFPLDRETKGASAATGIPLESDEDSNDNDNDLENENCMHTN

— paper PMC11734815
